Data from patent publication US8137708B2, “Herbal composition and process for its preparation” (Piramal Life Sciences Limited, priority 2006, dated 2012).

Legend:
K-562 = test: 3H-Thymidine uptake cell proliferation assay; format: cell-based; conditions: Homo sapiens, K562, 72 h, read-out: Imatinib (IC50)
[1] = tested on: imatinib-resistant CML patient sample; test: Efficacy in CML patient cells (3H Thymidine uptake); format: cell-based; conditions: Homo sapiens

IC50 (K-562): 0.3 µM
IC50 [1]: 8 µM
SMILES: Cc1ccc(NC(=O)c2ccc(CN3CCN(C)CC3)cc2)cc1Nc1nccc(-c2cccnc2)n1 [Imatinib, imatinib]
